Laboratory results reported in the supplement of paper PMC11264405.

Columns and labels:
Test in all cases: minimum inhibitory concentration
linezolid = compound: CC(=O)NC[C@H]1CN(c2ccc(N3CCOCC3)c(F)c2)C(=O)O1 [linezolid]
clindamycin = compound: CCC[C@@H]1C[C@@H](C(=O)N[C@@H]([C@H]2O[C@H](SC)[C@H](O)[C@@H](O)[C@H]2O)[C@H](C)Cl)N(C)C1 [clindamycin]
fidaxomicin = compound: CCc1c(Cl)c(O)c(Cl)c(O)c1C(=O)O[C@H]1[C@H](O)[C@H](OC)[C@H](OC/C2=C\C=C\C[C@H](O)/C(C)=C/[C@H](CC)[C@@H](O[C@@H]3OC(C)(C)[C@@H](OC(=O)C(C)C)[C@H](O)[C@@H]3O)/C(C)=C/C(C)=C/C[C@@H]([C@@H](C)O)OC2=O)O[C@@H]1C [fidaxomicin]
tigecycline = compound: CN(C)c1cc(NC(=O)CNC(C)(C)C)c(O)c2c1C[C@H]1C[C@H]3[C@H](N(C)C)C(O)=C(C(N)=O)C(=O)[C@@]3(O)C(O)=C1C2=O [tigecycline]
vancomycin = compound: CN[C@H](CC(C)C)C(=O)N[C@H]1C(=O)N[C@@H](CC(N)=O)C(=O)N[C@H]2C(=O)N[C@H]3C(=O)N[C@H](C(=O)N[C@H](C(=O)O)c4cc(O)cc(O)c4-c4cc3ccc4O)[C@H](O)c3ccc(c(Cl)c3)Oc3cc2cc(c3O[C@@H]2O[C@H](CO)[C@@H](O)[C@H](O)[C@H]2O[C@H]2C[C@](C)(N)[C@H](O)[C@H](C)O2)Oc2ccc(cc2Cl)[C@H]1O [vancomycin]
rifampicin = compound: CO[C@H]1/C=C/O[C@@]2(C)Oc3c(C)c(O)c4c(O)c(c(/C=N/N5CCN(C)CC5)c(O)c4c3C2=O)NC(=O)/C(C)=C\C=C\[C@H](C)[C@H](O)[C@@H](C)[C@@H](O)[C@@H](C)[C@H](OC(C)=O)[C@@H]1C [rifampicin]
imipenem = compound: C[C@@H](O)[C@H]1C(=O)N2C(C(=O)O)=C(SCCNC=N)C[C@H]12 [imipenem]
meropenem = compound: C[C@@H](O)[C@H]1C(=O)N2C(C(=O)O)=C(S[C@@H]3CN[C@H](C(=O)N(C)C)C3)[C@H](C)[C@H]12 [meropenem]
metronidazole = compound: Cc1ncc([N+](=O)[O-])n1CCO [metronidazole]

Test System	minimum inhibitory concentration (linezolid)	minimum inhibitory concentration (clindamycin)	minimum inhibitory concentration (fidaxomicin)	minimum inhibitory concentration (tigecycline)	minimum inhibitory concentration (vancomycin)	minimum inhibitory concentration (rifampicin)	minimum inhibitory concentration (imipenem)	minimum inhibitory concentration (meropenem)	minimum inhibitory concentration (metronidazole)
Clostridioides difficile PCR ribotype 045 isolate #315 (European region: East, country: Slovakia, isolate source: Animal, ribotype: 045)	4 µg/mL	1 µg/mL	0.008 µg/mL	0.06 µg/mL	0.5 µg/mL	< 0.001 µg/mL	4 µg/mL	2 µg/mL	< 0.125 µg/mL
Clostridioides difficile PCR ribotype 045 isolate #316 (European region: East, country: Slovakia, isolate source: Animal, ribotype: 045)	4 µg/mL	> 128 µg/mL	0.008 µg/mL	0.06 µg/mL	0.5 µg/mL	< 0.001 µg/mL	4 µg/mL	2 µg/mL	< 0.125 µg/mL
Clostridioides difficile PCR ribotype 045 isolate #317 (European region: East, country: Slovakia, isolate source: Animal, ribotype: 045)	2 µg/mL	> 128 µg/mL	0.008 µg/mL	< 0.03 µg/mL	1 µg/mL	< 0.001 µg/mL	2 µg/mL	2 µg/mL	0.25 µg/mL
Clostridioides difficile PCR ribotype 045 isolate #318 (European region: East, country: Slovakia, isolate source: Animal, ribotype: 045)	2 µg/mL	> 128 µg/mL	0.008 µg/mL	< 0.03 µg/mL	1 µg/mL	< 0.001 µg/mL	2 µg/mL	2 µg/mL	0.25 µg/mL
Clostridioides difficile PCR ribotype 045 isolate #319 (European region: East, country: Slovakia, isolate source: Animal, ribotype: 045)	2 µg/mL	> 128 µg/mL	0.004 µg/mL	< 0.03 µg/mL	1 µg/mL	< 0.001 µg/mL	2 µg/mL	2 µg/mL	0.25 µg/mL
Clostridioides difficile PCR ribotype 045 isolate #320 (European region: East, country: Slovakia, isolate source: Animal, ribotype: 045)	4 µg/mL	> 128 µg/mL	0.008 µg/mL	0.06 µg/mL	0.5 µg/mL	< 0.001 µg/mL	2 µg/mL	2 µg/mL	< 0.125 µg/mL
Clostridioides difficile PCR ribotype 045 isolate #321 (European region: East, country: Slovakia, isolate source: Animal, ribotype: 045)	2 µg/mL	> 128 µg/mL	0.004 µg/mL	0.06 µg/mL	0.5 µg/mL	< 0.001 µg/mL	1 µg/mL	2 µg/mL	< 0.125 µg/mL
Clostridioides difficile PCR ribotype 045 isolate #322 (European region: West, country: Netherlands, isolate source: Animal, ribotype: 045)	2 µg/mL	2 µg/mL	0.008 µg/mL	0.06 µg/mL	0.5 µg/mL	< 0.001 µg/mL	1 µg/mL	2 µg/mL	< 0.125 µg/mL
Clostridioides difficile PCR ribotype 045 isolate #323 (European region: East, country: Poland, isolate source: Animal, ribotype: 045)	4 µg/mL	> 128 µg/mL	0.008 µg/mL	0.06 µg/mL	0.5 µg/mL	< 0.001 µg/mL	2 µg/mL	2 µg/mL	0.25 µg/mL
Clostridioides difficile PCR ribotype 046 isolate #162 (European region: North, country: UK, isolate source: Human, ribotype: 046)	2 µg/mL	8 µg/mL	0.008 µg/mL	0.06 µg/mL	0.5 µg/mL	< 0.001 µg/mL	4 µg/mL	4 µg/mL	< 0.125 µg/mL
Clostridioides difficile PCR ribotype 046 isolate #163 (European region: South, country: Spain, isolate source: Human, ribotype: 046)	2 µg/mL	64 µg/mL	0.03 µg/mL	0.06 µg/mL	0.5 µg/mL	< 0.001 µg/mL	4 µg/mL	2 µg/mL	0.25 µg/mL
Clostridioides difficile PCR ribotype 046 isolate #164 (European region: South, country: Spain, isolate source: Human, ribotype: 046)	2 µg/mL	16 µg/mL	0.06 µg/mL	0.06 µg/mL	0.5 µg/mL	< 0.001 µg/mL	4 µg/mL	2 µg/mL	0.25 µg/mL
Clostridioides difficile PCR ribotype 046 isolate #165 (European region: South, country: Spain, isolate source: Human, ribotype: 046)	2 µg/mL	64 µg/mL	0.008 µg/mL	0.06 µg/mL	1 µg/mL	< 0.001 µg/mL	4 µg/mL	4 µg/mL	0.25 µg/mL
Clostridioides difficile PCR ribotype 046 isolate #166 (European region: North, country: UK, isolate source: Human, ribotype: 046)	2 µg/mL	> 128 µg/mL	0.03 µg/mL	0.06 µg/mL	0.5 µg/mL	< 0.001 µg/mL	4 µg/mL	2 µg/mL	< 0.125 µg/mL
Clostridioides difficile PCR ribotype 046 isolate #324 (European region: South, country: Spain, isolate source: Animal, ribotype: 046)	2 µg/mL	0.5 µg/mL	0.06 µg/mL	0.06 µg/mL	0.5 µg/mL	< 0.001 µg/mL	1 µg/mL	4 µg/mL	0.25 µg/mL
Clostridioides difficile PCR ribotype 046 isolate #325 (European region: North, country: Sweden, isolate source: Animal, ribotype: 046)	2 µg/mL	8 µg/mL	0.03 µg/mL	0.125 µg/mL	0.5 µg/mL	< 0.001 µg/mL	2 µg/mL	4 µg/mL	< 0.125 µg/mL
Clostridioides difficile PCR ribotype 046 isolate #326 (European region: North, country: Sweden, isolate source: Animal, ribotype: 046)	2 µg/mL	16 µg/mL	0.03 µg/mL	0.125 µg/mL	1 µg/mL	< 0.001 µg/mL	2 µg/mL	4 µg/mL	< 0.125 µg/mL
Clostridioides difficile PCR ribotype 050 isolate #167 (European region: North, country: UK, isolate source: Human, ribotype: 050)	2 µg/mL	8 µg/mL	0.008 µg/mL	< 0.03 µg/mL	0.5 µg/mL	< 0.001 µg/mL	2 µg/mL	2 µg/mL	< 0.125 µg/mL
Clostridioides difficile PCR ribotype 050 isolate #328 (European region: South, country: Italy, isolate source: Animal, ribotype: 050)	2 µg/mL	8 µg/mL	0.03 µg/mL	0.125 µg/mL	0.5 µg/mL	< 0.001 µg/mL	2 µg/mL	4 µg/mL	< 0.125 µg/mL
Clostridioides difficile PCR ribotype 057 isolate #168 (European region: South, country: Spain, isolate source: Human, ribotype: 057)	2 µg/mL	16 µg/mL	0.03 µg/mL	< 0.03 µg/mL	1 µg/mL	0.002 µg/mL	4 µg/mL	4 µg/mL	< 0.125 µg/mL
Clostridioides difficile PCR ribotype 057 isolate #329 (European region: West, country: Netherlands, isolate source: Animal, ribotype: 057)	2 µg/mL	64 µg/mL	0.015 µg/mL	< 0.03 µg/mL	0.5 µg/mL	< 0.001 µg/mL	2 µg/mL	2 µg/mL	0.25 µg/mL
Clostridioides difficile PCR ribotype 057 isolate #330 (European region: West, country: France, isolate source: Animal, ribotype: 057)	2 µg/mL	8 µg/mL	0.06 µg/mL	< 0.03 µg/mL	0.5 µg/mL	< 0.001 µg/mL	2 µg/mL	4 µg/mL	0.25 µg/mL
Clostridioides difficile PCR ribotype 058 isolate #169 (European region: North, country: UK, isolate source: Human, ribotype: 058)	2 µg/mL	4 µg/mL	0.06 µg/mL	0.06 µg/mL	1 µg/mL	< 0.001 µg/mL	2 µg/mL	4 µg/mL	< 0.125 µg/mL
Clostridioides difficile PCR ribotype 062 isolate #331 (European region: West, country: Netherlands, isolate source: Animal, ribotype: 062)	2 µg/mL	2 µg/mL	0.008 µg/mL	< 0.03 µg/mL	0.5 µg/mL	< 0.001 µg/mL	2 µg/mL	4 µg/mL	0.25 µg/mL
Clostridioides difficile PCR ribotype 064 isolate #170 (European region: North, country: UK, isolate source: Human, ribotype: 064)	2 µg/mL	1 µg/mL	0.03 µg/mL	0.06 µg/mL	0.5 µg/mL	< 0.001 µg/mL	4 µg/mL	2 µg/mL	0.5 µg/mL
Clostridioides difficile PCR ribotype 066 isolate #171 (European region: North, country: Sweden, isolate source: Human, ribotype: 066)	2 µg/mL	4 µg/mL	0.004 µg/mL	< 0.03 µg/mL	1 µg/mL	< 0.001 µg/mL	2 µg/mL	2 µg/mL	0.25 µg/mL

Copied from the list.
For minimum inhibitory concentration (rifampicin), Clostridioides difficile PCR ribotype 046 isolate #165 (European region: South, country: Spain, isolate source: Human, ribotype: 046) is listed with < 0.001 µg/mL
For minimum inhibitory concentration (rifampicin), Clostridioides difficile PCR ribotype 045 isolate #322 (European region: West, country: Netherlands, isolate source: Animal, ribotype: 045) is listed with < 0.001 µg/mL
